Assay results: article doi:10.1101/2023.12.01.569623
No constants are given. Whether binding was seen depends on the method and setting. Binding seen in cells or lysates may run through a third protein. Some entries that bind do so weakly or less than the wild type.

Sequences of proteins named here, by UniProt entry; tags and fusion partners are left off.
UniProt Q9EQ09: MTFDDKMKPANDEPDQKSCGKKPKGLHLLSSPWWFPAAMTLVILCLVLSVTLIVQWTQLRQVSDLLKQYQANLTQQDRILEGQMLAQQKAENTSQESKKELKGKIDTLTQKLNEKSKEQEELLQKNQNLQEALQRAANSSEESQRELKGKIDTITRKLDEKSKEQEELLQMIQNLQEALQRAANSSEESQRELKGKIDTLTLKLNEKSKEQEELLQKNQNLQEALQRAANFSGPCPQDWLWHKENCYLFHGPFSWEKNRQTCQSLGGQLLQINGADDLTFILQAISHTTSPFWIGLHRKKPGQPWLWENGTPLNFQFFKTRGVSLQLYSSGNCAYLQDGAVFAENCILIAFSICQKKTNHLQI

Molecular target: T1, endogenous Siglec-E of murine splenocytes (mouse (endogenous in splenocytes)) (UniProt Q91Y57)
T1 sequence: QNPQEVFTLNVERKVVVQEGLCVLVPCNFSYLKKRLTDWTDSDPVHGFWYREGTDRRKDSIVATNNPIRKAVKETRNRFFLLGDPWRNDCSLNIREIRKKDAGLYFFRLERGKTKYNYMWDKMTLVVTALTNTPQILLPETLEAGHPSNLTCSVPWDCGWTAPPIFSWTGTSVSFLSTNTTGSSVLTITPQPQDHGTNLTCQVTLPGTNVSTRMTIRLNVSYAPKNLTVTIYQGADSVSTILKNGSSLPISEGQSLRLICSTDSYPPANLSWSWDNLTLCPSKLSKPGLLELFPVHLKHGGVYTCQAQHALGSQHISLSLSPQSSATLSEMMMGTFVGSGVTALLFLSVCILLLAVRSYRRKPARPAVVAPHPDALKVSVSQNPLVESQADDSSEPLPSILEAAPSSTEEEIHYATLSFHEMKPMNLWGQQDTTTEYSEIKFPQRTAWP
Experiment: co-IP

Substance: endogenous LOX-1 of murine splenocytes (from UniProt Q9EQ09 1-363) (receptor)
- binding: binds
